Literature values in patent US9744130B2, “Cationic dry powders” (Pulmatrix Operating Company, Inc., priority 2010, dated 2017).
At least one compound was matched to its structure with a doubt left.

Details: printed as 1 g/x mL; magnesium chloride: Hexahydrate; potassium citrate: Monohydrate

For `[Cl-].[K+]` [Potassium chloride], the “Water solubility at 20-30° C., 1 bar (1 g per volume)” value is listed as 1 g/2.8 mL^1.
